Key:
in vivo = settings: rat, plasma
in vitro [1] = settings: rat, plasma
in vitro [2] = settings: male, Wistar, rat, brain homogenate (10% w/v), pH 7.4
human hepatocytes = settings: human cryopreserved hepatocytes, 1 μM, 0-120 minutes at 37° C.
rat hepatocytes = settings: rat cryopreserved hepatocytes, 1 μM, 0-120 minutes at 37° C.
in vitro [3] = settings: mouse, plasma
[4] = 30 mg/kg oral, male Sprague Dawley rats

For COc1ncc(-c2cccc(-n3cnc4cc(C(C)(C)O)cnc43)c2)c(OC)n1 [Compound 1, 2-(3-(3-(2,4-dimethoxypyrimidin-5-yl)phenyl)-3H-imidazo[4,5-b]pyridin-6-yl)propan-2-ol], which AUC(0-t) (in vivo; 1 mg/kg) is on record?
The AUC(0-t) was 1130 ng·h/mL.

What about the Cmax (in vivo; 1 mg/kg) of the same compound?
Its Cmax is 163 ng/mL.

And the Tmax (in vivo; 1 mg/kg)?
The Tmax was 4 h.

And the AUC(0-t) (in vivo; 3 mg/kg)?
The AUC(0-t) was 8000 ng·h/mL.

What about the Cmax (in vivo; 3 mg/kg) of the same compound?
Its Cmax is 552 ng/mL.

And the Tmax (in vivo; 3 mg/kg)?
The Tmax was 6 h.

And the AUC(0-t) (in vivo; 10 mg/kg)?
Its AUC(0-t) is 34500 ng·h/mL.

What about the Cmax (in vivo; 10 mg/kg) of the same compound?
Its Cmax is 2270 ng/mL.

And the Tmax (in vivo; 10 mg/kg)?
Its Tmax is 8 h.

And the AUC(0-t) (in vivo; 30 mg/kg)?
Its AUC(0-t) is 98500 ng·h/mL.

What about the Cmax (in vivo; 30 mg/kg) of the same compound?
The Cmax was 6590 ng/mL.

And the Tmax (in vivo; 30 mg/kg)?
The Tmax was 4 h.

And the AUC(0-t) (in vivo; iv, 0.5 mg/kg)?
The AUC(0-t) was 985 ng·h/mL.

What about the C0 (in vivo; iv, 0.5 mg/kg) of the same compound?
The C0 was 863 ng/mL.

And the Vd (in vivo; iv, 0.5 mg/kg)?
Its Vd is 2.4 L/kg.

And the fraction unbound at 4 h (in vitro [1])?
The fraction unbound at 4 h was 0.19.

And the fraction unbound at 4 h, 10 μM (in vitro [2])?
Its fraction unbound at 4 h, 10 μM is 0.07.

And the CIint in vivo (human hepatocytes)?
Its CIint in vivo is 1.87 μl/min/million cell.

What about the CIint in vivo (rat hepatocytes) of the same compound?
The CIint in vivo was 2.11 μl/min/million cell.

And the fraction unbound at 4 h (in vitro [3])?
The fraction unbound at 4 h was 0.16.

What about the free brain concentration [4] of the same compound?
Its free brain concentration is 494.
